Measured values as given in patent US20140141459A1, “PENTRAXIN 3 ASSOCIATION WITH ASTHMA” (THE REGENTS OF THE UNIVERSITY OF MICHIGAN, priority 2011, published 2014).
At least one structure is not confirmed: it was looked up by name or label, or the drawing left a doubt.

Tested on: OVA-induced asthma model
Test: Dexamethasone treatment in OVA-induced asthma model, PTX3 ELISA on lung homogenate
Type: in vivo, mice
Conditions: 1 mg/kg subcutaneously on days 21-24, 2 hrs prior to OVA challenge; sacrificed at day 25

C[C@@H]1C[C@H]2[C@@H]3CCC4=CC(=O)C=C[C@]4(C)[C@@]3(F)[C@@H](O)C[C@]2(C)[C@@]1(O)C(=O)CO [dexamethasone]
PTX3 levels in lung homogenates: reduced
